The test concerns BDF1 mice, P388 leukemia ip, median survival T/C. Briefly: NCI In Vivo Anticancer Drug Screen. Data for tumor model P388 Leukemia (intraperitoneal) in B6D2F1 (BDF1) mice. The settings on record: T/C endpoint: median survival time, higher T/C = longer survival. An outline of the steps:
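In tumour-bearing mice, survival after compound treatment is set against the vehicle group and given as a quotient.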

Setting [1] is: dose: 400.0 mg/kg/injection, schedule: Q04DX003 (ip), vehicle: saline.
Where [2] appears, read: dose: 100.0 mg/kg/injection, schedule: Q01DX009 (ip), vehicle: saline.
[3] abbreviates: dose: 100.0 mg/kg/injection, schedule: Q01DX009 (ip), vehicle: saline with Tween-80.
Setting [4] is: dose: 200.0 mg/kg/injection, schedule: Q01DX009 (ip), vehicle: saline with Tween-80.
The mark [5] stands for this setting: dose: 400.0 mg/kg/injection, schedule: Q04DX003 (ip), vehicle: saline with Tween-80.
The mark [6] stands for this setting: dose: 50.0 mg/kg/injection, schedule: Q01DX009 (ip), vehicle: saline with Tween-80.
[7] abbreviates: dose: 50.0 mg/kg/injection, schedule: Q01DX009 (ip), vehicle: saline.
The mark [8] stands for this setting: dose: 132.0 mg/kg/injection, schedule: Q04DX003 (ip), vehicle: saline.
Setting [9] is: dose: 200.0 mg/kg/injection, schedule: Q04DX003 (ip), vehicle: saline.
[10] abbreviates: dose: 300.0 mg/kg/injection, schedule: Q01DX009 (ip), vehicle: saline.

The list is a part of this screen's results and no random one: it is rich in T/C values a quarter to a half above the control, in often repeated tests (any T/C) and in doses without a T/C. Other doses and runs of a compound stand elsewhere. T/C gives the treated animals as a percentage of the vehicle group. Some entries give survivors of the animals treated and no T/C: the source files T/C as zero there, which appears to mark a toxic dose or a test without result, not a measured value. Some doses without a T/C left all or most animals alive at the check, yet need not have been tolerated: survival well below the control is almost never listed, so the zero probably covers shortened survival too. Counts of survivors are from the toxicity check (mostly the fifth day) where no day follows; animals may have died later. Schedule codes are those of the source, read here as Q, the interval in days (D) or hours (H), X, the number of doses. For survival time, the PubChem record calls one and a half times the control and up active, and a quarter to a half above the control has no call in these data; cut-offs in other NCI protocols can differ. Some entries were tested several times; the results are listed from low to high. Some T/C values are followed by the survivors on the day toxicity was checked, most often the fifth; without a count, all were alive then.

On to `Nc1nccc(NCCCCCCNc2ccnc(N)n2)n1`, for which, for the setting “dose: 100.0 mg/kg/injection, schedule: Q04DX002 (ip), vehicle: saline”, the T/C is 130 % of control. The survivor count reads like this: (dose: 200.0 mg/kg/injection, schedule: Q04DX002 (ip), vehicle: saline) 0 of 6; (dose: 400.0 mg/kg/injection, schedule: Q04DX002 (ip), vehicle: saline) 0 of 6.
Consider `O=C(c1ccc(Cl)cc1)c1cccc[n+]1Cc1ccccc1`, for which the survivor count (dose: 4.68 mg/kg/injection, schedule: Q01DX009 (ip), vehicle: Klucel (hydroxypropylcellulose) (HPC)) is recorded as 4 of 6; the survivor count (dose: 75.0 mg/kg/injection, schedule: Q01DX009 (ip), vehicle: Klucel (hydroxypropylcellulose) (HPC)) was 2 of 6; the survivor count (dose: 150.0 mg/kg/injection, schedule: Q01DX009 (ip), vehicle: Klucel (hydroxypropylcellulose) (HPC)) is recorded as 0 of 6; the survivor count (dose: 170.0 mg/kg/injection, schedule: Q04DX003 (ip), vehicle: Klucel (hydroxypropylcellulose) (HPC)) is reported as 1 of 6; the survivor count (dose: 255.0 mg/kg/injection, schedule: Q04DX003 (ip), vehicle: Klucel (hydroxypropylcellulose) (HPC)) is reported as 0 of 6; the survivor count (dose: 380.0 mg/kg/injection, schedule: Q04DX003 (ip), vehicle: Klucel (hydroxypropylcellulose) (HPC)) is 0 of 6.
On to `Nc1ncnc2c1ncn2C1CCCO1` (configuration not stated), for which the survivor count under setting [1] is reported as 4 of 6.
For `CCSc1ncnc2c1ncn2CN1CCOCC1`, the T/C under setting [2] is 130 % of control. Besides, the survivor count (dose: 220.0 mg/kg/injection, schedule: Q01DX009 (ip), vehicle: saline) is recorded as 5 of 6.
Consider `CN=NNc1ccccc1`, for which the T/C reads like this: (dose: 99.0 mg/kg/injection, schedule: Q04DX003 (ip), vehicle: saline with Tween-80) 130 % of control; (dose: 150.0 mg/kg/injection, schedule: Q04DX003 (ip), vehicle: saline with Tween-80) 140 % of control. For the same compound, the survivor count runs as follows: (dose: 150.0 mg/kg/injection, schedule: Q01DX009 (ip), vehicle: other) 6 of 6; (dose: 300.0 mg/kg/injection, schedule: Q01DX009 (ip), vehicle: other) 6 of 6.
Consider `N#CC(C#N)=C(C#N)C#N`, for which, where the note is “dose: 6.25 mg/kg/injection, schedule: Q04DX003 (ip), vehicle: Klucel (hydroxypropylcellulose) (HPC)”, the survivor count was 1 of 6.
Consider `CCOC(=O)/C(C#N)=C/C=C1\C=CC=CN1C`, for which the survivor count reads like this: under setting [3], 4 of 6; under setting [4], 1 of 6.
Turning to `CC(C)(C)SC(=O)C[Si](C)(C)C`, the survivor count under setting [5] is given as 5 of 6.
Regarding `Cn1c2ccccc2c2ccc3c(c21)C(=O)C=CC3=O`, the survivor count reads like this: under setting [6], 4 of 6; under setting [4], 2 of 6. In addition, under setting [3], the T/C is 125 % of control [4 of 6 alive].
Regarding `Cc1c2ccccc2c(CSC(=N)N)c2ccccc12`, the T/C was 127 % of control (dose: 2.78 mg/kg/injection, schedule: Q04DX003 (ip), vehicle: saline with Tween-80); 131 % of control (dose: 4.17 mg/kg/injection, schedule: Q04DX003 (ip), vehicle: saline with Tween-80); 127 % of control (dose: 6.25 mg/kg/injection, schedule: Q04DX003 (ip), vehicle: saline with Tween-80); 140 % of control (dose: 6.25 mg/kg/injection, schedule: Q04DX003 (ip), vehicle: saline).
For `COc1cc2cc3c4cc(OC)c(OC)cc4cc[n+]3c(CCC(=O)O)c2cc1OC` (tested in a mixture with another compound), the survivor count (dose: 400.0 mg/kg/injection, schedule: Q01DX009 (ip), vehicle: Klucel (hydroxypropylcellulose) (HPC)) is reported as 1 of 3.
`CC(C)CCCCCCCCCCCCC(=O)NCC(=O)NC1C(C)OC(Nc2ncnc3nc[nH]c23)C(O)C1O` (configuration not stated): the T/C is 127 % of control (dose: 720.0 micrograms/kg/injection, schedule: Q04DX003 (ip), vehicle: saline); 133 % of control (dose: 1200.0 micrograms/kg/injection, schedule: Q04DX003 (ip), vehicle: saline); 125 % of control (dose: 2000.0 micrograms/kg/injection, schedule: Q04DX003 (ip), vehicle: saline).
For the compound `COC(=O)/C(=N\NS(=O)(=O)c1ccc(C)cc1)c1ccccc1`, the T/C (dose: 12.5 mg/kg/injection, schedule: Q04DX003 (ip), vehicle: Klucel (hydroxypropylcellulose) (HPC)) was 125 % of control.
`CCN(CCNc1ccc(C)c2sc3ccccc3c(=O)c12)CC(C)(C)O`: the T/C under setting [7] is 130 % of control; the T/C (dose: 75.0 mg/kg/injection, schedule: Q01DX009 (ip), vehicle: saline) is 145 % of control; the T/C (dose: 99.0 mg/kg/injection, schedule: Q01DX009 (ip), vehicle: saline) is 145 % of control; the T/C under setting [8] is 131 % of control; the T/C under setting [9] was 140 % of control. In addition, the survivor count by setting is: (dose: 225.0 mg/kg/injection, schedule: Q01DX009 (ip), vehicle: saline) 5 of 6; under setting [10], 6 of 6.
Turning to `CCCCNC(=O)OC`, the survivor count (dose: 200.0 mg/kg/injection, schedule: Q01DX009 (ip), vehicle: Klucel (hydroxypropylcellulose) (HPC)) is on record as 6 of 6.
Regarding `Cc1ccc(NC(=O)NCCCOc2ccc(N3C(N)=NC(N)=NC3(C)C)cc2Cl)cc1S(=O)(=O)F`, the T/C is 131 and 135 % of control under setting [8]; 131 and 145 % of control under setting [9]; 135 [5 of 6 alive] and 145 % of control (dose: 300.0 mg/kg/injection, schedule: Q04DX003 (ip), vehicle: saline). In addition, the survivor count under setting [10] is recorded as 4 of 6 and the survivor count under setting [1] was 4 of 6.
Regarding `C[N-]N(C)C(=O)[S-].C[N-]N(C)C(=O)[S-].C[N-]N(C)C(=O)[S-].[Co]`, the survivor count is recorded as 1 of 6 (dose: 200.0 mg/kg/injection, schedule: Q04DX003 (ip), vehicle: saline with Tween-80) and 0 of 6 under setting [5].
Consider `COC(C)C(Br)C(=O)O` (configuration not stated), for which, where the note is “dose: 400.0 mg/kg/injection, schedule: Q01DX009 (ip), vehicle: saline”, the survivor count was 6 of 6.
Regarding `CC(C)(C)C([NH-])=O.CC(C)(C)C([NH-])=O.[Cl][Pt+2][Cl]`, the survivor count (dose: 100.0 mg/kg/injection, schedule: Q04DX003 (ip), vehicle: saline) is 3 of 6.
As for `CC[n+]1c(-c2ccccc2)c2cc(N)ccc2c2ccc(N)cc21` (tested in a mixture with another compound), the T/C by setting is: (dose: 100.0 mg/kg/injection, schedule: Q01DX009 (ip), vehicle: other) 135 % of control; (dose: 200.0 mg/kg/injection, schedule: Q01DX009 (ip), vehicle: other) 126 % of control; (dose: 400.0 mg/kg/injection, schedule: Q01DX009 (ip), vehicle: other) 135 % of control.
Turning to `COc1cc(/C=N/NC(=O)C[n+]2ccccc2)cc(OC)c1`, the survivor count under setting [2] is 6 of 6.
Take `OC1(CSc2ccccc2)CCCCC1`: the T/C under setting [6] was 131 % of control and the T/C under setting [4] was 131 % of control.
On to `OCC[N-]CC[N-]CCO.[Cl][Co][Cl]`, for which the T/C is 144 % of control (dose: 25.0 mg/kg/injection, schedule: Q01DX009 (ip), vehicle: saline) and 147 % of control under setting [7]. Also, the survivor count under setting [2] is listed as 6 of 6.
On to `CC(=O)OCc1cc2ccccc2nc1C`, for which the survivor count under setting [3] is reported as 6 of 6.
In the case of `N#CS/C=C\C(N)=O`, the survivor count is listed as 6 of 6 (dose: 3.0 mg/kg/injection, schedule: Q01DX009 (ip), vehicle: Klucel (hydroxypropylcellulose) (HPC)); 3 of 6 (dose: 12.0 mg/kg/injection, schedule: Q01DX009 (ip), vehicle: Klucel (hydroxypropylcellulose) (HPC)); 0 of 6 (dose: 25.0 mg/kg/injection, schedule: Q04DX003 (ip), vehicle: Klucel (hydroxypropylcellulose) (HPC)).

(Values after PubChem BioAssay AID328 (DTP/NCI, 2004).)
